Assay results reported in the supplement of paper PMC10735217.
This is one part of the list. Repeats in this data set agree poorly, so a single value says little.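 In a drug-repurposing library screen, luminescence reads luciferase driven by eight TEAD-binding elements, stably integrated into human kidney-derived cells. Compounds scoring over five robust Z scores above the plate mean are called hits.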

Tested on: HEK293A TEAD-LUC reporter
Assay: TEAD-luciferase reporter activity (YAP activation), robust Z score vs plate; higher = stronger YAP/TEAD activation
Details: 24 h

SMILES: NS(=O)(=O)c1ccc(N2N=C(C(F)(F)F)CC2c2c[nH]c3c(Cl)cccc23)cc1 (stereo not drawn)
- TEAD-luciferase reporter activity (compound concentration: 200 nM): inactive: -0.637
- TEAD-luciferase reporter activity (compound concentration: 2 uM): inactive: -0.999
- TEAD-luciferase reporter activity (compound concentration: 10 uM): inactive: -0.89

SMILES: [2H]C([2H])([2H])n1c([N+](=O)[O-])cnc1C(C)C
- TEAD-luciferase reporter activity (compound concentration: 200 nM): inactive: -0.748
- TEAD-luciferase reporter activity (compound concentration: 2 uM): inactive: -0.611
- TEAD-luciferase reporter activity (compound concentration: 10 uM): inactive: -1.47

SMILES: COc1ccc2c(c1)-c1nn(CCCN(C)C)c3ccc([N+](=O)[O-])c(c13)N2 [Pyrazoloacridine]
- TEAD-luciferase reporter activity (compound concentration: 200 nM): inactive: 2.63
- TEAD-luciferase reporter activity (compound concentration: 2 uM): inactive: 0.169
- TEAD-luciferase reporter activity (compound concentration: 10 uM): inactive: 0.314

SMILES: CC(CN1CCN(c2cccc3c2CCCN3)CC1)NC(=O)c1ccc(F)cc1 (stereo not drawn)
- TEAD-luciferase reporter activity (compound concentration: 200 nM): inactive: 0.552
- TEAD-luciferase reporter activity (compound concentration: 2 uM): inactive: 2.03
- TEAD-luciferase reporter activity (compound concentration: 10 uM): inactive: 1.3

SMILES: COc1ccc(-c2csc(CN)n2)cc1OC
- TEAD-luciferase reporter activity (compound concentration: 200 nM): inactive: -0.966
- TEAD-luciferase reporter activity (compound concentration: 2 uM): inactive: -1.33
- TEAD-luciferase reporter activity (compound concentration: 10 uM): inactive: -1.09

SMILES: CC(C)(C)NCC(O)c1ccc(O)c(CO)c1 (stereo not drawn) [R-salbutamol]
- TEAD-luciferase reporter activity (compound concentration: 2 uM): inactive: -0.804

SMILES: CC(C)(C)NCC(O)c1ccc(O)c(CO)c1 (stereo not drawn)
- TEAD-luciferase reporter activity (compound concentration: 200 nM): inactive: 0.123
- TEAD-luciferase reporter activity (compound concentration: 10 uM): inactive: -0.0261

SMILES: CC(C)(C)NCC(O)c1ccc(O)c(CO)c1 (stereo not drawn) [salbutamol]
- TEAD-luciferase reporter activity (compound concentration: 2 uM): inactive: -0.93

SMILES: Cc1cc(NC(=O)NC(=O)c2ccccc2N(C)C)ccc1Oc1ncc(Br)cn1
- TEAD-luciferase reporter activity (compound concentration: 200 nM): inactive: -1.11
- TEAD-luciferase reporter activity (compound concentration: 2 uM): inactive: -0.868
- TEAD-luciferase reporter activity (compound concentration: 10 uM): inactive: 1.57

SMILES: CCOC(=O)[C@H](Cc1ccc(OC)cc1)NC(=O)C1(NC(=O)[C@@H](SC(C)=O)C(C)C)CCCC1
- TEAD-luciferase reporter activity (compound concentration: 200 nM): inactive: 3.18
- TEAD-luciferase reporter activity (compound concentration: 2 uM): inactive: -0.879
- TEAD-luciferase reporter activity (compound concentration: 10 uM): inactive: -1.5

SMILES: O=C(O)CN1C(=O)C(N[C@@H](CCc2ccccc2)C(=O)O)CCc2ccccc21 (stereo partly drawn) [benazeprilat]
- TEAD-luciferase reporter activity (compound concentration: 200 nM): inactive: 1
- TEAD-luciferase reporter activity (compound concentration: 2 uM): inactive: -1.7
- TEAD-luciferase reporter activity (compound concentration: 10 uM): inactive: -1.02

SMILES: O=C(NCCc1ccc(O)c(O)c1)C12CC3CC(CC(C3)C1)C2 [dopamantine]
- TEAD-luciferase reporter activity (compound concentration: 200 nM): inactive: -0.378
- TEAD-luciferase reporter activity (compound concentration: 2 uM): inactive: 0.0979
- TEAD-luciferase reporter activity (compound concentration: 10 uM): inactive: -1.49

SMILES: CCC1c2ncn(CC)c2CCN1C(=S)NC(C)C (stereo not drawn)
- TEAD-luciferase reporter activity (compound concentration: 200 nM): inactive: -0.337
- TEAD-luciferase reporter activity (compound concentration: 2 uM): inactive: 0.243
- TEAD-luciferase reporter activity (compound concentration: 10 uM): inactive: -0.0104

SMILES: CC(C)c1cccc(C(C)C)c1NC(=O)C1c2ccccc2COc2ccc(Br)cc21 (stereo not drawn)
- TEAD-luciferase reporter activity (compound concentration: 200 nM): inactive: -0.0645
- TEAD-luciferase reporter activity (compound concentration: 2 uM): inactive: -1.76
- TEAD-luciferase reporter activity (compound concentration: 10 uM): inactive: -1.19

SMILES: CN(C)CCOC(C)(c1ccccc1)c1ccccn1 (stereo not drawn)
- TEAD-luciferase reporter activity (compound concentration: 200 nM): inactive: -0.913
- TEAD-luciferase reporter activity (compound concentration: 10 uM): inactive: -0.621

SMILES: CN(C)CCOC(C)(c1ccccc1)c1ccccn1 (stereo not drawn) [doxylamine]
- TEAD-luciferase reporter activity (compound concentration: 2 uM): inactive: -0.251

SMILES: Cn1cnc([N+](=O)[O-])c1Sc1ncnc2[nH]cnc12 [Azathioprin]
- TEAD-luciferase reporter activity (compound concentration: 200 nM): inactive: 1.85
- TEAD-luciferase reporter activity (compound concentration: 10 uM): inactive: -0.162

SMILES: Cn1cnc([N+](=O)[O-])c1Sc1ncnc2[nH]cnc12 [azathioprine, CTD]
- TEAD-luciferase reporter activity (compound concentration: 2 uM): inactive: 0.701

SMILES: CC(C)(C)[C@]1(O)CCN2C[C@H]3c4ccccc4CCc4cccc(c43)[C@@H]2C1 [butaclamol]
- TEAD-luciferase reporter activity (compound concentration: 200 nM): inactive: -1.4
- TEAD-luciferase reporter activity (compound concentration: 2 uM): inactive: -0.875
- TEAD-luciferase reporter activity (compound concentration: 10 uM): active: 7.21

SMILES: CCCc1c(OCCCCCOc2cc3c(cc2C(C)=O)CCC(C(=O)O)O3)ccc(C(C)=O)c1O (stereo not drawn) [Ablukast]
- TEAD-luciferase reporter activity (compound concentration: 200 nM): inactive: -0.606
- TEAD-luciferase reporter activity (compound concentration: 2 uM): inactive: -0.474
- TEAD-luciferase reporter activity (compound concentration: 10 uM): inactive: 0.203

SMILES: O=C(O)[C@@H](CC1CCC1)c1cc(Cl)c(OCC(F)(F)F)c(-c2ccc(C(F)(F)F)cc2)c1
- TEAD-luciferase reporter activity (compound concentration: 200 nM): inactive: 0.52
- TEAD-luciferase reporter activity (compound concentration: 2 uM): inactive: 0.665
- TEAD-luciferase reporter activity (compound concentration: 10 uM): inactive: 3.52

SMILES: C[C@H]1CN(C2COC2)CCN1c1ccc(Nc2cc(-c3ccnc(N4CCn5c(cc6c5CC(C)(C)C6)C4=O)c3CO)cn(C)c2=O)nc1 [Fenebrutinib]
- TEAD-luciferase reporter activity (compound concentration: 200 nM): inactive: -0.893
- TEAD-luciferase reporter activity (compound concentration: 10 uM): inactive: 0.772

SMILES: N=C(N)NC(=O)Cc1c(Cl)cccc1Cl [guanfacine, IR]
- TEAD-luciferase reporter activity (compound concentration: 2 uM): inactive: -1.16

SMILES: N=C(N)NC(=O)Cc1c(Cl)cccc1Cl [guanfacine, IR, Shire]
- TEAD-luciferase reporter activity (compound concentration: 200 nM): inactive: 0.327
- TEAD-luciferase reporter activity (compound concentration: 10 uM): inactive: -0.291

SMILES: CCCCCCCC(=O)OC[C@H]1O[C@@H](n2ccc(N)nc2=O)[C@@H](O)[C@@H]1O
- TEAD-luciferase reporter activity (compound concentration: 200 nM): inactive: -1.69
- TEAD-luciferase reporter activity (compound concentration: 2 uM): inactive: -1.27
- TEAD-luciferase reporter activity (compound concentration: 10 uM): inactive: -0.226

SMILES: c1ccc(CN(CC2=NCCN2)c2ccccc2)cc1
- TEAD-luciferase reporter activity (compound concentration: 200 nM): inactive: -2.06
- TEAD-luciferase reporter activity (compound concentration: 2 uM): inactive: -1.84
- TEAD-luciferase reporter activity (compound concentration: 10 uM): inactive: -0.6

SMILES: CCCCN(CCC1CCCCC1)Cc1ccc(C(=O)N[C@H](CCSC)C(=O)OC)c(-c2ccccc2C)c1
- TEAD-luciferase reporter activity (compound concentration: 200 nM): inactive: -0.36
- TEAD-luciferase reporter activity (compound concentration: 2 uM): inactive: 0.723
- TEAD-luciferase reporter activity (compound concentration: 10 uM): inactive: 0.0364

SMILES: CN(C)S(=O)(=O)c1cc2c(c(Cl)c1Cl)OC(C(=O)O)C2 (stereo not drawn)
- TEAD-luciferase reporter activity (compound concentration: 200 nM): inactive: -1.4
- TEAD-luciferase reporter activity (compound concentration: 2 uM): inactive: -1.13
- TEAD-luciferase reporter activity (compound concentration: 10 uM): inactive: -0.951

SMILES: CC(C)=CCC1C(=O)N(c2ccccc2)N(c2ccccc2)C1=O [feprazone]
- TEAD-luciferase reporter activity (compound concentration: 200 nM): inactive: 0.585
- TEAD-luciferase reporter activity (compound concentration: 2 uM): inactive: 0.159
- TEAD-luciferase reporter activity (compound concentration: 10 uM): inactive: 0.998

SMILES: CCOC(=O)C1(c2ccccc2)CCCNC1=O (stereo not drawn)
- TEAD-luciferase reporter activity (compound concentration: 200 nM): inactive: -1.1
- TEAD-luciferase reporter activity (compound concentration: 2 uM): inactive: -1.12
- TEAD-luciferase reporter activity (compound concentration: 10 uM): inactive: 1.39

SMILES: CC(=O)NC1CCCN(c2nc3ncccc3o2)C1 (stereo not drawn)
- TEAD-luciferase reporter activity (compound concentration: 200 nM): inactive: 0.0893
- TEAD-luciferase reporter activity (compound concentration: 10 uM): inactive: -0.113

SMILES: COC(=O)Cc1c(C)n(C(=O)c2ccc(Cl)cc2)c2ccc(OC)cc12
- TEAD-luciferase reporter activity (compound concentration: 200 nM): inactive: -1.45
- TEAD-luciferase reporter activity (compound concentration: 2 uM): inactive: -0.967
- TEAD-luciferase reporter activity (compound concentration: 10 uM): inactive: -0.0258

SMILES: NS(=O)(=O)c1cc(-c2nnn[nH]2)c(NCc2cccs2)cc1Cl [azosemide]
- TEAD-luciferase reporter activity (compound concentration: 200 nM): inactive: -0.793
- TEAD-luciferase reporter activity (compound concentration: 2 uM): inactive: -0.503
- TEAD-luciferase reporter activity (compound concentration: 10 uM): active: 6.39

SMILES: CN1CCc2nc(C(=O)N[C@@H]3C[C@@H](C(=O)N(C)C)CC[C@@H]3NC(=O)C(=O)Nc3ccc(Cl)cn3)sc2C1 [Edoxaban tosilate]
- TEAD-luciferase reporter activity (compound concentration: 200 nM): inactive: -1.1
- TEAD-luciferase reporter activity (compound concentration: 2 uM): inactive: -0.759
- TEAD-luciferase reporter activity (compound concentration: 10 uM): inactive: -0.467

SMILES: CCN1c2ncc(CCOc3cc[n+]([O-])c4ccccc34)cc2C(=O)N(C)c2cccnc21
- TEAD-luciferase reporter activity (compound concentration: 200 nM): inactive: -1.24
- TEAD-luciferase reporter activity (compound concentration: 2 uM): inactive: 1.63
- TEAD-luciferase reporter activity (compound concentration: 10 uM): inactive: 0.955

SMILES: Cc1ccc(C(=O)O)cc1-c1cccc(NCCNCC(O)c2cccc(Cl)c2)c1 (stereo not drawn)
- TEAD-luciferase reporter activity (compound concentration: 200 nM): inactive: 1.83
- TEAD-luciferase reporter activity (compound concentration: 2 uM): inactive: 1.52
- TEAD-luciferase reporter activity (compound concentration: 10 uM): inactive: -0.614

SMILES: Cc1sc(C)c2c1CCCc1cn[nH]c1-2
- TEAD-luciferase reporter activity (compound concentration: 200 nM): inactive: -2.05
- TEAD-luciferase reporter activity (compound concentration: 2 uM): inactive: -0.929
- TEAD-luciferase reporter activity (compound concentration: 10 uM): inactive: -0.515

SMILES: COC(=O)CCc1c2/C=C/3\N=C(C(=C3CCC(=O)O)C)/C=C/3\N/C(=C\C4=N/C(=C\c(c1C)[nH]2)/C(=C4C)C=C)/C1=CC=C([C@H](C31C)C(=O)OC)C(=O)OC (stereo partly drawn)
- TEAD-luciferase reporter activity (compound concentration: 200 nM): inactive: -2
- TEAD-luciferase reporter activity (compound concentration: 2 uM): inactive: -1.26
- TEAD-luciferase reporter activity (compound concentration: 10 uM): inactive: -0.492
